These are yes or no findings as the source states them, for the method shown. Binding seen in cells or lysates may run through a third protein. Some entries that bind do so weakly or less than the wild type.

Chains of the proteins cited; added tags and fusions are not shown.
UniProt Q96P20: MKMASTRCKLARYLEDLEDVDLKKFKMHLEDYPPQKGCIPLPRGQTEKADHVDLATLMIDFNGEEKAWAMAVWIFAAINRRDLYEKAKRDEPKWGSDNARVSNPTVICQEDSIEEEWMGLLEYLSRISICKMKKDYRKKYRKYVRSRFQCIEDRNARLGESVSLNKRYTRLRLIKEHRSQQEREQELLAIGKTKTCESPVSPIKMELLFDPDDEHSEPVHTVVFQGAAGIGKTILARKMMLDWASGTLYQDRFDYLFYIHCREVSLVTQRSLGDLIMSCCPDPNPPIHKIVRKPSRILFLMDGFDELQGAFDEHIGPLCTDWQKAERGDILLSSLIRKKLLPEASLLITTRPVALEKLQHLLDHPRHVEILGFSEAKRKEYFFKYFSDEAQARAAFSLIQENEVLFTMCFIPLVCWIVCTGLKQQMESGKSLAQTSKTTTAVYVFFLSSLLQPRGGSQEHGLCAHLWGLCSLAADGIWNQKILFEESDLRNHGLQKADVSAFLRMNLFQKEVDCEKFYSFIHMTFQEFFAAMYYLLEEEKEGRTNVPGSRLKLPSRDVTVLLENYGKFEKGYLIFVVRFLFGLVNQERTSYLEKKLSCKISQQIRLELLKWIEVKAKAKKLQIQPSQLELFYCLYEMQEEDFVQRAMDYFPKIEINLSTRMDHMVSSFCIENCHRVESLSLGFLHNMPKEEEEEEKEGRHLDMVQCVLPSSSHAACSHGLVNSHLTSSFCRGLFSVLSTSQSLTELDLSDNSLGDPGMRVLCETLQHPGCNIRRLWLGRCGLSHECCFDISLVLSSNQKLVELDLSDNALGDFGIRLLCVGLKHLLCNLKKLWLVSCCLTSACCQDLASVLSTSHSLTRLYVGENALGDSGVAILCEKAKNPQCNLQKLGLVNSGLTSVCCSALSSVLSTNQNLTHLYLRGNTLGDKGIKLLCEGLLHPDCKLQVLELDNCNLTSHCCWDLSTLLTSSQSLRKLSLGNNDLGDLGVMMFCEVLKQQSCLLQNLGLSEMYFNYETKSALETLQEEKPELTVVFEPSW

The assay deals with NOD-like receptor family pyrin domain containing 3 (NLRP3) (human (endogenous in HMC3)) (UniProt Q96P20). Put plainly: co-IP; HMC3 cells lysed in RIPA buffer, precleared with protein A/G Sepharose beads; lysate incubated with anti-NLRP3 or anti-TRIM59 antibodies or control IgG at 4 °C overnight, then protein A/G Sepharose beads 4 h; bound proteins analysed by western blotting. On the technique in general: A western blot detects proteins with antibodies after separation by electrophoresis.

B1: tripartite motif-containing protein 59 (TRIM59) (protein, UniProt Q8IWR1 1-403)
chain: MHNFEEELTCPICYSIFEDPRVLPCSHTFCRNCLENILQASGNFYIWRPLRIPLKCPNCRSITEIAPTGIESLPVNFALRAIIEKYQQEDHPDIVTCPEHYRQPLNVYCLLDKKLVCGHCLTIGQHHGHPIDDLQSAYLKEKDTPQKLLEQLTDTHWTDLTHLIEKLKEQKSHSEKMIQGDKEAVLQYFKELNDTLEQKKKSFLTALCDVGNLINQEYTPQIERMKEIREQQLELMALTISLQEESPLKFLEKVDDVRQHVQILKQRPLPEVQPVEIYPRVSKILKEEWSRTEIGQIKNVLIPKMKISPKRMSCSWPGKDEKEVEFLKILNIVVVTLISVILMSILFFNQHIITFLSEITLIWFSEASLSVYQSLSNSLHKVKNILCHIFYLLKEFVWKIVSH
Consider B1, for which the binding result is “binds”.
